From the supplement of paper PMC12819154, “High-throughput peptide-centric local stability assay extends protein–ligand identification to membrane proteins, tissues and bacteria” (Nature Structural & Molecular Biology, 2025)
This is one part of the list. Small differences around the control level are noise.

Chains of the proteins cited; added tags and fusions are not shown. Lines headed by an entry give the natural chain unless they say otherwise; changes in a name come on top.
UniProt Q9NQI0, whole entry: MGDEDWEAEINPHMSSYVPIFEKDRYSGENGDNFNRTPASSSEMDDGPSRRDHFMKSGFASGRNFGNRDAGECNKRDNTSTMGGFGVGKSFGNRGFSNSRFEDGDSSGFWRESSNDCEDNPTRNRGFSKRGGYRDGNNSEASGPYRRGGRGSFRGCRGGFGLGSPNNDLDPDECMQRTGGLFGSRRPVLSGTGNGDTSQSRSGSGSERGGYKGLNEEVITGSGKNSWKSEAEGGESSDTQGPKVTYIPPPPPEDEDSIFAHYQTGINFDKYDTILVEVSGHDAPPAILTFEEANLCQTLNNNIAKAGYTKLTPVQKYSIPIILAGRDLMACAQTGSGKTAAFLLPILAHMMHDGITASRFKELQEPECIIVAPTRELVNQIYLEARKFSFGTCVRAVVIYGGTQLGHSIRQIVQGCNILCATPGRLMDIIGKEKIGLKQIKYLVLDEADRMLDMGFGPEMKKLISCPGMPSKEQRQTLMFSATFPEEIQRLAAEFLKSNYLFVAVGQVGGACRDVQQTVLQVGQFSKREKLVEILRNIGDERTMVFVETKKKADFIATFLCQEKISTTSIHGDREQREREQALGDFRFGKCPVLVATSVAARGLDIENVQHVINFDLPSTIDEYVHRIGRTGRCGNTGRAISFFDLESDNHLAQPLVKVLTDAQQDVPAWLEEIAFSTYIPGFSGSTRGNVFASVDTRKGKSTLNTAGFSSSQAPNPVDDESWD
UniProt Q9NX04: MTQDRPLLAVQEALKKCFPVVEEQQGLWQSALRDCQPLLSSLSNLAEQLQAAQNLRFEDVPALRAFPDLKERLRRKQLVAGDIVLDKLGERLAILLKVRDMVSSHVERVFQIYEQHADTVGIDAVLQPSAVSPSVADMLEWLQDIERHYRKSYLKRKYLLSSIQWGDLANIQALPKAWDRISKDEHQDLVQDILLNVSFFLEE
UniProt Q9NS91, whole entry: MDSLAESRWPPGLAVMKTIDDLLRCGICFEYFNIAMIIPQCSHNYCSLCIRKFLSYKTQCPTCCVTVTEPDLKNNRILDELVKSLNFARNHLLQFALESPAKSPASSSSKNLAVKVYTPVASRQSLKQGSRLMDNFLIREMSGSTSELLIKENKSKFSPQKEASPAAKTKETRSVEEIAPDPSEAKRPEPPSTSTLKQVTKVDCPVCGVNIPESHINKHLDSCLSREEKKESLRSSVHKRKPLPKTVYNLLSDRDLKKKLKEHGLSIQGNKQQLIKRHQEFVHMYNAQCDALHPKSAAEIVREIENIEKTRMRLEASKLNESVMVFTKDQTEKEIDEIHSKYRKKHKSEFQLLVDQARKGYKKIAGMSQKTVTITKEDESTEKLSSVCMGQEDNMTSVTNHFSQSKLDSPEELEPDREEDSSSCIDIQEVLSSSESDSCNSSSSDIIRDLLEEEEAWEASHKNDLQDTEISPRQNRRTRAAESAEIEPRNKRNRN
UniProt Q9NR31: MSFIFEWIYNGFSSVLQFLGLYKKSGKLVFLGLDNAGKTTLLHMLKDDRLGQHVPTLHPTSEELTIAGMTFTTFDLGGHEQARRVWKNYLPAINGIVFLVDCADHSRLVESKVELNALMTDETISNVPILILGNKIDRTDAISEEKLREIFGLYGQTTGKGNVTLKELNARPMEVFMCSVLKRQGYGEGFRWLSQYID
UniProt Q9NV88, whole entry: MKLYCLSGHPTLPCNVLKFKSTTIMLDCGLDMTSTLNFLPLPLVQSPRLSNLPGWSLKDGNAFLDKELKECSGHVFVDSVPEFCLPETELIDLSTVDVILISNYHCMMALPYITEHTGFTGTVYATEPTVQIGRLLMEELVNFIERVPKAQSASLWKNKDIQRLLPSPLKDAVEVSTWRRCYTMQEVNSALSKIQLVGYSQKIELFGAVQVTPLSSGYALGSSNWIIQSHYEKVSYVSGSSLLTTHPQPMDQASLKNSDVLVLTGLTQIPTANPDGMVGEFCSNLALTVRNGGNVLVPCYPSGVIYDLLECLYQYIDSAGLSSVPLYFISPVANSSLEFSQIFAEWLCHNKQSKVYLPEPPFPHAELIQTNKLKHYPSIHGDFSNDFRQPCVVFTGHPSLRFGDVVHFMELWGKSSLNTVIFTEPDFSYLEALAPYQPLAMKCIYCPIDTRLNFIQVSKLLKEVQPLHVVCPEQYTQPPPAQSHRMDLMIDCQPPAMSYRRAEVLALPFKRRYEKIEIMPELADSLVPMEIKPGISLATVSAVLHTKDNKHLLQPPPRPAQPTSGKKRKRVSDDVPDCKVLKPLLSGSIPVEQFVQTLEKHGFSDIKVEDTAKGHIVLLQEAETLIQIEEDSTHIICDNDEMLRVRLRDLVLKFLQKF
UniProt Q9NQS7, whole entry: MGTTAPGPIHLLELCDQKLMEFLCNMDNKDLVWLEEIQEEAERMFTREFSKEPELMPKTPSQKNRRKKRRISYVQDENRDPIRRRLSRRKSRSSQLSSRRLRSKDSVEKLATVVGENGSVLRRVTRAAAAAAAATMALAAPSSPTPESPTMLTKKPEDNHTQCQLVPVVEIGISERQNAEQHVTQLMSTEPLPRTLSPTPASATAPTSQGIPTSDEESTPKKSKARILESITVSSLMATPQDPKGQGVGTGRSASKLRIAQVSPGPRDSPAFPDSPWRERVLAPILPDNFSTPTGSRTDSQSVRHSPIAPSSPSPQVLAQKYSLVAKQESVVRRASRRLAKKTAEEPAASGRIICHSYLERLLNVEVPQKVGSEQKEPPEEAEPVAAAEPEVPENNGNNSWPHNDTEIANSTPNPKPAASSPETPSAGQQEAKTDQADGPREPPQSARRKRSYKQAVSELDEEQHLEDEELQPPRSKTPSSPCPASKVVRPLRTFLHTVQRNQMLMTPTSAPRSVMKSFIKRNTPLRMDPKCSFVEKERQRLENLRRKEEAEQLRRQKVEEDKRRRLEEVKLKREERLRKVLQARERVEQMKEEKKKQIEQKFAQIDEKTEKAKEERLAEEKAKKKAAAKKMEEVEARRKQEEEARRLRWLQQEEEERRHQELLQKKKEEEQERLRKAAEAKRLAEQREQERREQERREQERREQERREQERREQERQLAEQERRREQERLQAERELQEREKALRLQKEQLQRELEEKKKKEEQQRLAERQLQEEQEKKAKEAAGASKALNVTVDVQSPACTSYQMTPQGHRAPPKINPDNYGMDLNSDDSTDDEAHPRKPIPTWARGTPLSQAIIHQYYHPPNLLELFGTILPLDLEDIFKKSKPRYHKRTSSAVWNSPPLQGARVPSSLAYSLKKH
UniProt Q9NWF9: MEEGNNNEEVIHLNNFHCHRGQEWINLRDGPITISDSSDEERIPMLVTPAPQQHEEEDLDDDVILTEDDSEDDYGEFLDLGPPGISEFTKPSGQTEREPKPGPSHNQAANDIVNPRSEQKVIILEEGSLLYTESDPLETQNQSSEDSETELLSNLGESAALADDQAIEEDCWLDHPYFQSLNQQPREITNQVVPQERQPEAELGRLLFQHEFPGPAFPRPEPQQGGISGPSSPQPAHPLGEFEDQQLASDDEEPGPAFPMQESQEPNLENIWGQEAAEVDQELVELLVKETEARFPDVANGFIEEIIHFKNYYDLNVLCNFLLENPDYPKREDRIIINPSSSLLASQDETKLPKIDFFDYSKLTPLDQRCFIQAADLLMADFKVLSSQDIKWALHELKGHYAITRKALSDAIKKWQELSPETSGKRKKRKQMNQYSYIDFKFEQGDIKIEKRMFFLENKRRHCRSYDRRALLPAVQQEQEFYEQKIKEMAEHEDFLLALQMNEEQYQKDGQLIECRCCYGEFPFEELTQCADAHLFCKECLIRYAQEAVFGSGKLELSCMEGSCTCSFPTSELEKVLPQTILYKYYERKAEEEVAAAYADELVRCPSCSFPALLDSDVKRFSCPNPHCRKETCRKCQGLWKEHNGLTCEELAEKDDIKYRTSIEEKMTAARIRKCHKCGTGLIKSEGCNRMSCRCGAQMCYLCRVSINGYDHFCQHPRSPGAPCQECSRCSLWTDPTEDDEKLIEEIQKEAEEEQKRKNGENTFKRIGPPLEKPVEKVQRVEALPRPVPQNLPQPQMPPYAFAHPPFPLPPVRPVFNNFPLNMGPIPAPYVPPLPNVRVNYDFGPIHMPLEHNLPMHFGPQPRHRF
UniProt Q9NXV6: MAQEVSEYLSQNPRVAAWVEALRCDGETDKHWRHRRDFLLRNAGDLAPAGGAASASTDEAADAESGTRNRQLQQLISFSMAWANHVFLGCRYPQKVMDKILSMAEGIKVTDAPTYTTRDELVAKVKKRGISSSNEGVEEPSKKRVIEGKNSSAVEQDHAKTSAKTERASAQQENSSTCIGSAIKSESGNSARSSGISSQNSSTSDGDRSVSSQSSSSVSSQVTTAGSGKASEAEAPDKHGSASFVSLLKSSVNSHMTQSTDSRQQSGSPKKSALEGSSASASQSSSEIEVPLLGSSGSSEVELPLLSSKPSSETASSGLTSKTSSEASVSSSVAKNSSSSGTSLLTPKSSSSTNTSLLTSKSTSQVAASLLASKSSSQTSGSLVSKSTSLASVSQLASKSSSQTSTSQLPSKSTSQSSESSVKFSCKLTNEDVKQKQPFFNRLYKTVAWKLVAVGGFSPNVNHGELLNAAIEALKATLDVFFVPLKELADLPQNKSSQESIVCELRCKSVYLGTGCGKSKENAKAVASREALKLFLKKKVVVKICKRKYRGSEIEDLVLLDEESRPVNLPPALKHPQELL

Compound: CN[C@@H]1C[C@H]2O[C@@](C)([C@@H]1OC)n1c3ccccc3c3c4c(c5c6ccccc6n2c5c31)C(=O)NC4 [staurosporine]
Assay: log2 fold change of tryptic peptide abundance, ligand vs vehicle (limited proteolysis) (log2 ratio); higher = more trypsin-susceptible (destabilized)
Conditions: ligand concentration: 20 uM; sample: K562 cleared lysate; digestion: 4 min, 22 C (HT-PELSA RT4min, Orbitrap Astral)

Target | log2 fold change
DDX4 (peptide sequence: YLVLDEADR, peptide start residue: 343) (UniProt Q9NQI0) | -0.0363
C1orf109 (peptide sequence: FEDVPALR, peptide start residue: 57) (UniProt Q9NX04) | 0.0799
RAD18 (peptide sequence: SVEEIAPDPSEAKRPEPPSTSTLK, peptide start residue: 174) (UniProt Q9NS91) | -0.224
SAR1A (peptide sequence: EIFGLYGQTTGKGNVTLK, peptide start residue: 149) (UniProt Q9NR31) | -0.757
INTS9 (peptide sequence: KRVSDDVPDCK, peptide start residue: 569) (UniProt Q9NV88) | -0.258
INCENP (peptide sequence: LLNVEVPQK, peptide start residue: 362) (UniProt Q9NQS7) | -0.314
RNF216 (peptide sequence: EITNQVVPQER, peptide start residue: 187) (UniProt Q9NWF9) | -0.143
CDKN2AIP (peptide sequence: NSSAVEQDHAK, peptide start residue: 150) (UniProt Q9NXV6) | 0.156
